# Measured values: the supplement of paper PMC4604168 (melanoma cell lines)
# The other results are listed elsewhere or left out. Many values rest on one well or one pass, so single values are uncertain.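 Cells were imaged in 1,536-well plates, and nuclei stained with an antibody against cleaved PARP were counted against all DNA-stained nuclei to give the apoptosis fraction. Screening doses were chosen to leave most cells alive, and resting and induced cleaved-PARP levels differ strongly between cell lines.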
# Key:
# Experiment in all cases: cleaved PARP positive nuclei fraction relative to DMSO control; melanoma cells; higher = more apoptosis
# Conditions in all cases: library dose: low library concentration; 72 h
# MZ2-MEL = tested on: MZ2-MEL
# MeWo = tested on: MeWo
# RPMI7951 = tested on: RPMI7951
# RVH-421 = tested on: RVH-421
# SkMel28 = tested on: SkMel28
# SkMel2 = tested on: SkMel2
# SkMel30 = tested on: SkMel30
# SkMel5 = tested on: SkMel5
# UACC257 = tested on: UACC257
# UACC62 = tested on: UACC62
# WM115 = tested on: WM115
# WM1716 = tested on: WM1716
# WM1745 = tested on: WM1745
# WM3526 = tested on: WM3526
# WM3619 = tested on: WM3619
# WM451Lu = tested on: WM451Lu
Structure (SMILES),cleaved PARP positive nuclei fraction (MZ2-MEL),cleaved PARP positive nuclei fraction (MeWo),cleaved PARP positive nuclei fraction (RPMI7951),cleaved PARP positive nuclei fraction (RVH-421),cleaved PARP positive nuclei fraction (SkMel28),cleaved PARP positive nuclei fraction (SkMel2),cleaved PARP positive nuclei fraction (SkMel30),cleaved PARP positive nuclei fraction (SkMel5),cleaved PARP positive nuclei fraction (UACC257),cleaved PARP positive nuclei fraction (UACC62),cleaved PARP positive nuclei fraction (WM115),cleaved PARP positive nuclei fraction (WM1716),cleaved PARP positive nuclei fraction (WM1745),cleaved PARP positive nuclei fraction (WM3526),cleaved PARP positive nuclei fraction (WM3619),cleaved PARP positive nuclei fraction (WM451Lu)
"Nc1nc(F)nc2c1ncn2[C@@H]1O[C@H](CO)[C@@H](O)[C@@H]1O [fludarabine] + O=C1NC(=O)/C(=C/c2ccc(-c3ccc(F)cc3O)o2)S1 [AS252424] (first compound 0.2 µM, partner dose 1 µM)",142%,749%,71.9%,57.4%,39.8%,416%,2840%,268%,203%,116%,126%,68%,103%,1700%,103%,681%
"Cc1cc(Nc2cc(N3CCN(C)CC3)nc(/C=C/c3ccccc3)n2)n[nH]1 + Oc1nc(-c2ccc(C(F)(F)F)cc2)nc2c1CSCC2 [XAV939] (first compound 0.04 µM, partner dose 2 µM)",77.6%,29.3%,90.5%,62%,55%,111%,353%,88.5%,263%,36.6%,216%,178%,109%,70.5%,92.8%,74.3%
"CCCS(=O)(=O)Nc1ccc(F)c(C(=O)c2c[nH]c3ncc(Cl)cc23)c1F + O=S(=O)(c1ccccc1)N(CC(F)(F)F)c1ccc(C(O)(C(F)(F)F)C(F)(F)F)cc1 [T0901317] (first compound 0.08 µM, partner dose 1.4 µM)",28.8%,104%,99.3%,148%,176%,93.9%,26.6%,167%,106%,96.9%,113%,163%,99.4%,75.6%,97.3%,124%
"Nc1ncn([C@H]2C[C@H](O)[C@@H](CO)O2)c(=O)n1 [decitabine] + NCC(=O)Nc1ccc(-n2nc(C(F)(F)F)cc2-c2ccc3c(ccc4ccccc43)c2)cc1 [OSU03012] (first compound 0.1 µM, partner dose 1 µM)",76.6%,127%,134%,73.9%,141%,113%,217%,174%,120%,74.3%,49.7%,51.5%,94.3%,104%,84.2%,189%
"CCCS(=O)(=O)Nc1ccc(F)c(C(=O)c2c[nH]c3ncc(Cl)cc23)c1F + CC(C)(C)c1cnc(CSc2cnc(NC(=O)C3CCNCC3)s2)o1 [SNS-032] (first compound 0.08 µM, partner dose 0.01 µM)",154%,91.5%,110%,221%,271%,139%,78.8%,93%,46.1%,356%,103%,80.2%,124%,79.7%,94%,33.6%
"Cc1cc(Nc2cc(N3CCN(C)CC3)nc(/C=C/c3ccccc3)n2)n[nH]1 + CCCCCCCCCCCC1=C(O)C(=O)C=C(O)C1=O [Embelin] (first compound 0.04 µM, partner dose 1.2 µM)",56.9%,117%,28.6%,233%,145%,118%,38.9%,34.4%,144%,145%,94.1%,47.8%,106%,86.4%,105%,74%
"C=C(c1ccc(C(=O)O)cc1)c1cc2c(cc1C)C(C)(C)CCC2(C)C [Bexarotene] + Cn1cncc1[C@@](N)(c1ccc(Cl)cc1)c1ccc2c(c1)c(-c1cccc(Cl)c1)cc(=O)n2C [tipifarnib] (first compound 2 µM, partner dose 0.01 µM)",67%,54.2%,227%,32.1%,66.5%,128%,53.3%,133%,50.1%,81.3%,36.9%,33.9%,92%,67.6%,131%,264%
"C=C(c1ccc(C(=O)O)cc1)c1cc2c(cc1C)C(C)(C)CCC2(C)C [Bexarotene] + Cc1ccc(NC(=O)c2cccc(N(C)C)c2)cc1NC(=O)c1ccc(O)cc1 [ZM336372] (first compound 2 µM, partner dose 2 µM)",152%,110%,84.1%,131%,53.8%,81.7%,73.3%,169%,101%,95.9%,111%,28.2%,103%,61.4%,112%,120%
"O=C(O)c1ccc2c(c1)nc(Nc1cccc(Cl)c1)c1ccncc12 + CC(C)CCN1c2nc(Nc3cc(F)c(O)c(F)c3)ncc2N(C)C(=O)C1C [BID1870] (first compound 0.4 µM, partner dose 0.2 µM)",149%,183%,289%,75.7%,151%,134%,167%,91.3%,118%,120%,477%,137%,88%,113%,82.8%,40.6%
"Nc1ncn([C@H]2C[C@H](O)[C@@H](CO)O2)c(=O)n1 [decitabine] + CC1(C)NC(=O)N(c2ccc([N+](=O)[O-])c(C(F)(F)F)c2)C1=O [nilutamide] (first compound 0.1 µM, partner dose 1 µM)",135%,197%,113%,39.2%,119%,118%,71.9%,75.9%,59%,35.3%,137%,98.5%,78%,49.1%,76.7%,124%
"C=C(c1ccc(C(=O)O)cc1)c1cc2c(cc1C)C(C)(C)CCC2(C)C [Bexarotene] + Cc1cc([N+](=O)[O-])ccc1NS(=O)(=O)c1cc(Cl)ccc1Cl [FH535] (first compound 2 µM, partner dose 1 µM)",106%,49.1%,74%,151%,172%,180%,207%,46.1%,47.3%,142%,35.8%,124%,110%,128%,82.6%,96.8%
"CC(C)C[C@H](NC(=O)[C@H](Cc1ccccc1)NC(=O)c1cnccn1)B(O)O [Bortezomib] + COc1ccc2c(c1)CCC1C2CCC2(C)C(NCCCCCCN3C(=O)C=CC3=O)CCC12 [U73122] (first compound 0.001 µM, partner dose 0.4 µM)",113%,223%,160%,140%,160%,141%,99.8%,80.4%,375%,199%,64.3%,1150%,144%,40.1%,501%,247%
"Cc1cc(Nc2cc(N3CCN(C)CC3)nc(/C=C/c3ccccc3)n2)n[nH]1 + O=S(=O)(c1ccccc1)N(CC(F)(F)F)c1ccc(C(O)(C(F)(F)F)C(F)(F)F)cc1 [T0901317] (first compound 0.04 µM, partner dose 1.4 µM)",100%,93.7%,242%,84.2%,34.7%,209%,99.9%,163%,222%,84.4%,88.3%,72%,107%,158%,85.3%,74.1%
"CC(C)C[C@H](NC(=O)[C@H](Cc1ccccc1)NC(=O)c1cnccn1)B(O)O [Bortezomib] + COc1cc(N2CCC(N3CCN(C)CC3)CC2)ccc1Nc1ncc(Cl)c(Nc2ccccc2S(=O)(=O)C(C)C)n1 [NVP-TAE684] (first compound 0.001 µM, partner dose 0.08 µM)",135%,68.2%,99.7%,333%,131%,93.8%,642%,247%,17.1%,101%,116%,360%,141%,118%,1630%,93%
"CN1CCN(c2ccc3nc(-c4c(N)c5c(F)cccc5[nH]c4=O)[nH]c3c2)CC1 [Dovitinib] + COc1ccc(COc2ccc(Cc3cnc(N)nc3N)cc2OC)cc1 [GW2580] (first compound 0.1 µM, partner dose 1 µM)",163%,126%,61.7%,76.1%,115%,22.2%,85.5%,176%,140%,102%,231%,140%,113%,164%,78.8%,64.4%
"Nc1ncn([C@H]2C[C@H](O)[C@@H](CO)O2)c(=O)n1 [decitabine] + O=C(CCCCCCC(=O)Nc1ccccc1)NO [vorinostat] (first compound 0.1 µM, partner dose 0.08 µM)",156%,50.9%,74.4%,269%,179%,95.6%,73.4%,84.8%,202%,128%,61.6%,97.6%,98.3%,119%,112%,70.3%
"CCCS(=O)(=O)Nc1ccc(F)c(C(=O)c2c[nH]c3ncc(Cl)cc23)c1F + COc1cc(N2CCC(N3CCN(C)CC3)CC2)ccc1Nc1ncc(Cl)c(Nc2ccccc2S(=O)(=O)C(C)C)n1 [NVP-TAE684] (first compound 0.08 µM, partner dose 0.08 µM)",218%,142%,69%,108%,173%,57.3%,120%,67.5%,258%,160%,27.6%,92.5%,87.4%,106%,86.9%,138%
"CCCS(=O)(=O)Nc1ccc(F)c(C(=O)c2c[nH]c3ncc(Cl)cc23)c1F + CN(C)S(=O)(=O)c1ccc2c(c1)/C(=C/c1cc3c([nH]1)CCCC3)C(=O)N2 [SU6656] (first compound 0.08 µM, partner dose 0.4 µM)",224%,65.7%,90.3%,88.1%,62.1%,143%,295%,171%,96.3%,90.7%,231%,63.5%,114%,84.9%,84.9%,269%
"Nc1ncn([C@H]2C[C@H](O)[C@@H](CO)O2)c(=O)n1 [decitabine] + Cn1cc(/C=C2\C(=O)Nc3cccnc32)c2ccccc21 [GW441756] (first compound 0.1 µM, partner dose 0.4 µM)",146%,45.4%,78%,210%,69.1%,29.3%,289%,95.3%,165%,272%,149%,106%,98.4%,339%,90.7%,62.1%

# Taken from above.
# Entry of CN1CCN(c2ccc3nc(-c4c(N)c5c(F)cccc5[nH]c4=O)[nH]c3c2)CC1 [Dovitinib] + COc1ccc(COc2ccc(Cc3cnc(N)nc3N)cc2OC)cc1 [GW2580] (first compound 0.1 µM, partner dose 1 µM) under cleaved PARP positive nuclei fraction (WM1716): 140%
# Entry of CCCS(=O)(=O)Nc1ccc(F)c(C(=O)c2c[nH]c3ncc(Cl)cc23)c1F + CN(C)S(=O)(=O)c1ccc2c(c1)/C(=C/c1cc3c([nH]1)CCCC3)C(=O)N2 [SU6656] (first compound 0.08 µM, partner dose 0.4 µM) under cleaved PARP positive nuclei fraction (WM3619): 84.9%
